The results in this text go back to PMC7819943, “Rice protein-binding microarrays: a tool to detect cis-acting elements near promoter regions in rice”.

This is one part of the list.

The experiment concerns the target T1, OsSMF1 (Oryza sativa, UniProt Q6ZLB0 1-436).
T1 sequence: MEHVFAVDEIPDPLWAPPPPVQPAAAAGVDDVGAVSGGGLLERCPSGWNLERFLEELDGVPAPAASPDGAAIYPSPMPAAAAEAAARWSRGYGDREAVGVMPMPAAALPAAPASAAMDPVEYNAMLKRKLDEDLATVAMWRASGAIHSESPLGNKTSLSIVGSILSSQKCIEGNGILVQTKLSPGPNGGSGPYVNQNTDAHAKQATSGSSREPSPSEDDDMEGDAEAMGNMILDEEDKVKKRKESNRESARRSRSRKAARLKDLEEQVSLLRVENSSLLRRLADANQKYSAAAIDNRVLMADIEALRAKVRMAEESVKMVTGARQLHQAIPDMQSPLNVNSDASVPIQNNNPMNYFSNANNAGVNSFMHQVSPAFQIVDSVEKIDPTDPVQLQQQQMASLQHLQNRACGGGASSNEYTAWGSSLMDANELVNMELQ
The experiment can be described thus: protein-binding microarray (RPBM); PBS, 2% BSA, 51.3 ng/ul salmon testes DNA, 50 uM zinc acetate, 200 nM TF, 25 C, 1 h; high values mean tight binding. As to conditions: protein: recombinant; tags: N-terminal polyhistidine and DsRed monomer fusion (pET32a); chain copies: 2; label: CyDye5-dUTP incorporated in the synthesized complementary strand; 3' TTTTT single-stranded linker to array surface; dsDNA, one strand shown. Summed up: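 The binding signal for each feature is its fluorescence intensity in arbitrary units. An Axon 4000B scanner was used to read a custom Agilent array that had been made double-stranded with Cy5-dUTP primer extension, blocked with 2% BSA, incubated at 25 °C for 1 h with 200 nM protein in PBS, 2% BSA, salmon testes DNA and 50 µM zinc acetate, and washed. The protein was an N-terminal polyhistidine–DsRed transcription factor fusion from E. coli BL21-CodonPlus, purified on Ni–NTA.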
Consider “CGAGTATTTATTTAGGTGTTTAGTTCAAAGCAGAGTTGCTCGGAGTCACCTAGTGCAG”, for which the binding signal was 22000 fluorescence intensity (a.u.). To “TTTCATGCCTCCTCCATGTTGGCAATTTGACATGTCCTTCCGGAGTCACCTAGTGCAG” belongs 3340 fluorescence intensity (a.u.).

With “ATCTCTTCTTCCGCTTGGACTCATCGCCGTGACGTCGACGCGGAGTCACCTAGTGCAG”, the binding signal is 5470 fluorescence intensity (a.u.). To “TCTACTCCTAAATCCACATCATCTTTAGCAAAAGCAACAACGGAGTCACCTAGTGCAG” belongs 4670 fluorescence intensity (a.u.); to “CATCACTTATTTTGTTGTGACCTATTTTATCATTAAAATACGGAGTCACCTAGTGCAG”, 3200 fluorescence intensity (a.u.).

As to “TTAGCTTCACAGTTCACTGTAGCGTCTAGAAGAGGAACAGCGGAGTCACCTAGTGCAG”, the binding signal was 63300 fluorescence intensity (a.u.). As for “CAGAACGTGATGGAGGAGGACCGCACGCTGCGGTGGCACGCGGAGTCACCTAGTGCAG”, the figure is 18100 fluorescence intensity (a.u.); as for “ATAGCCCAACTCGAATCAATCCACGTCTCCACCGTTCATCCGGAGTCACCTAGTGCAG”, 3360 fluorescence intensity (a.u.).

Turning to “TTAGCGCTAGAGCTAGGCCGGCCACTACACATCATATCGACGGAGTCACCTAGTGCAG”, the binding signal was 3700 fluorescence intensity (a.u.).

In the case of “GTCGTCCGAATCCAAAACCGTCGCGGCCACGTCACCGAGTCGGAGTCACCTAGTGCAG”, the binding signal is 25600 fluorescence intensity (a.u.). Turning to “TGGAGTACGTCATCGACATCGATCCCGCAACGTGTGCCTCCGGAGTCACCTAGTGCAG”, the binding signal was 9360 fluorescence intensity (a.u.).

For the sequence “TGTGATGTTAGATTATGCTTTACTTTGAACTTTGAAGTACCGGAGTCACCTAGTGCAG”, the binding signal is 26800 fluorescence intensity (a.u.). As for “CTAGAGCACATCACGATCACACTTCACCCATTGAGCCGCCCGGAGTCACCTAGTGCAG”, the figure is 16000 fluorescence intensity (a.u.); as for “ATAATTAGTCGTAACTACGAGCACCTGTATCAAGTCATGCCGGAGTCACCTAGTGCAG”, 3820 fluorescence intensity (a.u.). Consider “TTTGAGTATTTAGCAGCAAAAGCGGCTGTTGGCTGTGTGCCGGAGTCACCTAGTGCAG”, for which the binding signal was 31900 fluorescence intensity (a.u.). As for “GCACCACTGCTCCACCGCCAACTAAACTTCCGCCGGCGTGCGGAGTCACCTAGTGCAG”, the figure is 3390 fluorescence intensity (a.u.); as for “CTCCCTGCAAACCGCGCCACGCGGCCGCTCCGGAGCCTCACGGAGTCACCTAGTGCAG”, 5560 fluorescence intensity (a.u.).

“ATAAACCTAGCACACATGATGTGAGCGTCATCTATCTAAACGGAGTCACCTAGTGCAG”: the binding signal is 3960 fluorescence intensity (a.u.). As for “ATTTCCAGTAAAAGTGGCATTGTTCAGACTTCAGTCATTACGGAGTCACCTAGTGCAG”, the figure is 3530 fluorescence intensity (a.u.); as for “TACAACAAACCTAACATCAGCTACTTGTCATCGATCATCACGGAGTCACCTAGTGCAG”, 3270 fluorescence intensity (a.u.); as for “TCAAATCAGAAATGAGGATCCTACATCACAAGTTGGCAAGCGGAGTCACCTAGTGCAG”, 6340 fluorescence intensity (a.u.). To “TAGAAGAACAACCATTGTATAGGAAGTAGGAACCAGTGCACGGAGTCACCTAGTGCAG” belongs 25600 fluorescence intensity (a.u.); to “GCCGCCGCCGCGGCATACCACGCGCAGGTGAGCCCGTTCCCGGAGTCACCTAGTGCAG”, 4380 fluorescence intensity (a.u.); to “ATACCGACTTGGTTCTAAGAGTTGTCATAACATCTCGATCCGGAGTCACCTAGTGCAG”, 3180 fluorescence intensity (a.u.). To “CATTTTAATGTTGGATCAATTGCGTGTCACAGATTGAGTGCGGAGTCACCTAGTGCAG” belongs 6770 fluorescence intensity (a.u.). Consider “CATCGCACGAAATTAATATGATGCCACGTCCTCATACTAGCGGAGTCACCTAGTGCAG”, for which the binding signal is 17500 fluorescence intensity (a.u.). Take “AAAAGGTTACGACTAACTTTTGCGTGTGTGTAATCTTTGCCGGAGTCACCTAGTGCAG”: the binding signal is 4210 fluorescence intensity (a.u.). As for “CAGGTGGTGGTGGCCATTAGTTAGTGGCAAATGTGGAAGGCGGAGTCACCTAGTGCAG”, the figure is 3220 fluorescence intensity (a.u.); as for “AGGGGACAAAACACCATGGCCTCGCCGGCGTATTGAGTGGCGGAGTCACCTAGTGCAG”, 3560 fluorescence intensity (a.u.). Consider “CGAACCACGCAAATAATACTACACACGCGCGTCACGGACACGGAGTCACCTAGTGCAG”, for which the binding signal is 4640 fluorescence intensity (a.u.). To “ACCAAGCCACGGACTCCTCTAATTCTCTCTCTTGCTTTCTCGGAGTCACCTAGTGCAG” belongs 36100 fluorescence intensity (a.u.).

As to “ATTTATAGCTGTACGCCCGCATACTTCTGCAGTCAGCAAACGGAGTCACCTAGTGCAG”, the binding signal is 3540 fluorescence intensity (a.u.). As for “AGGATAGCCTCGTGCTGTACGTGCTGTACAACGCGGTGGTCGGAGTCACCTAGTGCAG”, the figure is 12300 fluorescence intensity (a.u.); as for “GCTATAGGTGAGTAACCCGTGACAGTTCATTTATATCCGGCGGAGTCACCTAGTGCAG”, 3190 fluorescence intensity (a.u.); as for “TTTCCGGAGGACCCCGTCCCAACTCTTGATGACACGCTGCCGGAGTCACCTAGTGCAG”, 3250 fluorescence intensity (a.u.).

Turning to “TAATTTGATCACGCACATCAGCTCATGATCTCAATCCTCGCGGAGTCACCTAGTGCAG”, the binding signal is 3310 fluorescence intensity (a.u.). As for “CAGTTACGCGCCGTGCCTACCCGTGTATCACCGCGATGAGCGGAGTCACCTAGTGCAG”, the figure is 3270 fluorescence intensity (a.u.); as for “GTTTAAATATATTGTTCAACCTTTTACAAGATAAAAGGGTCGGAGTCACCTAGTGCAG”, 27300 fluorescence intensity (a.u.); as for “TGGGTGAGAGTTTGAACCCGAACATATGACACATCTATGTCGGAGTCACCTAGTGCAG”, 3270 fluorescence intensity (a.u.). As for “TAAAGTAAACTCGATCTCTTTCCGAGAAGTGTATTATTTTCGGAGTCACCTAGTGCAG”, the figure is 41400 fluorescence intensity (a.u.); as for “CGACGAGGAGGCCGGGGATGGAGCCGACGGTGCGGATGTCCGGAGTCACCTAGTGCAG”, 3810 fluorescence intensity (a.u.); as for “AAAGAAGAAATCCACCTGACCCCGCGCCACCTGTCGCCTCCGGAGTCACCTAGTGCAG”, 5530 fluorescence intensity (a.u.).
